From PubChem BioAssay AID1508600 (Functional Genomics Laboratory (NCATS/FGL), 2020)
Among all 53,000 sequences or so, about 3,700 (7%) were called active.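 How the source made its calls: active means gene knockdowns whose robust z-score for IL-1 alpha signal is at least 2 or at most -2, so actives lie on both sides; inactive means the rest.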 The list shows a part of the results.

assay: Components of the Cytosolic LPS Sensing Pathway: Gene Identification via Genome-wide siRNA Screen; details: RAW264.7 macrophages, IL-1a HTRF, actives lie on both sides, screened at 100 nM (by protocol), cells primed 5 h with Pam3CSK4 first;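 further: robust z of the log signal after scaling to non-targeting control siRNA wells of the plate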
In short: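 Knockdown: 100 nM siRNA, 48h, RAW264.7. Stimulation: Pam3CSK4 5 h, then LipidA via TransIT-TKO 24 h. Output: supernatant IL-1a HTRF, negative-control-normalized, log robust z-score; viability by CellTiter-Glo.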

z-score, inactive:
GCUAGCACUAAGUGAACCUTT against Ppp1r21 1.25
GGAGAUCGUGGAGAUGUACTT against Myh9 -0.13
GGCAAACUCUAUCUCCAAATT against Ier5l 0.252
GCUACAUCUGCUUCCUUUUTT against Olfr623 -0.311
GCCUGCAUUUACAAGUACUTT against Itm2a 0.646
GGUGAUCAUAUAAGUUAGUTT against Ankrd39 -0.874
GGAGGUCUACAUUUAUUAATT against Dera 1.31
GGGCAAGCCACUCAUGUUGTT against Me2 -0.997
GGCCAAUAGGACAUAUCUATT against Qprt -0.443
GCAUAAAAAACGAAUAGAGTT against Smc1b -0.432
GGAGGUUGAAGUGCAGGAATT against Mab21l1 1.41
GCUUUUGUGUCAUGUUGCATT against Ncdn -1.09
CCAUUUUAACCAAUGGUGUTT against Olfr572 -1.06
GGAGACCACAGACCUCAAATT against Fcgrt -0.593
CCUACCUCCUGAAUUUAUUTT against Cnot11 -0.11
CCAGAAUCGAAAUAACCAGTT against Rpgrip1 0.822
GGUACAAGGUGAAGACUUCTT against Reg3a 1.48
GGACAAGAAUUGGAACAAATT against Zfp84 1.43
GCAUCUCCUGCCAAAGCAGTT against Ms4a2 -0.381
GCCUACAAAACAACACUACTT against BC048562 -0.0074
GGUAUACAAUCCUUACCGUTT against Cyp4f39 0.565
GGACUGAAAGAAAUCAGAATT against Asxl2 0.434
GGUGUUGGAAACAAUCAGATT against Cd59a 1.21
GCGGGAACCAUUUUUGUGATT against Cdh11 -1.18
GACUCUGCUUUUUGUGUUATT against Olfr958 1.05
GGAAAAGAUGAAGACUACATT against Ifnar2 -0.636
GGGAAACAAGCAUCUUCUGTT against Bmp5 -0.474
GGGCAACUUCCUCAGACAUTT against Cav2 0.245
GGAAUCAUCGGUUCUGUGUTT against Cldn16 -0.589
GGCCGAUGAUAAAAAUGAATT against Cnga1 -0.0836
CGUCUACUUCGUACAAAUGTT against Slc22a14 0.0893
GCCACCUAAUUGAUUUCCGTT against Ggt7 0.0552
GGGUUUGACCUGAUUUCUCTT against Col9a1 0.305
GAUUUUUCAAAUCUUUGGCTT against Plac8 -1.52
UAAGUGUUGUCUUCCUUUUTT against Olfr1360 0.658
CGGGAAGCUUUCCUAAACUTT against Serpinb9d 0.497
GGAAAAUGUUUGGACUUUGTT against Cnep1r1 -0.0623
GGUGAUGGAAGAAAAUACCTT against Pcdhb22 1.83
GGAACUAGAACCAGAGUCCTT against Mrpl54 -0.0282
GCUCUAAUCAAUCAGUUAATT against Lnpep -0.294
GGUCAGUUCCUAGCUUCACTT against Gucy1b2 -0.715
GGAUCCCAGAUUGAAAACUTT against Rnf5 -0.92
GCUGUACGUGCUUGGUUAGTT against Isl1 -0.456
GGAAGAUGAUUUCUCCUUCTT against 2900026A02Rik 0.471
GGCCAUCUUCCUGUUUGUGTT against Gabarapl2 0.196
GGCACACAAAAGAAUACCUTT against Sobp -0.501
GGAGACUUUGUCGUGUUUATT against Supt20 -0.106
GGCUUUUGUCAAGCAGCACTT against Ins2 -0.628
GGCUCUGCUGAAUAACCUGTT against Gcnt3 -1.45
GGAGAAAGACAACUUCCUATT against Clec7a 0.239
GGAAAUGUGGAGCUCAACGTT against Smap2 -0.618
CCAAGUUCACAAUUGUUCUTT against Gimap8 -0.263
GCCCUCAUUUGUCCUACAUTT against Arhgef2 0.202
GCAGUCAUGAGAAAUACUATT against Irak1 -0.0477
GGAUCUAUUUGGCAGAUUUTT against Pabpc6 1.09
GCUAUUUCAGGCACAAUAATT against Srprb 0.287
GGGAGCCAGGAGAAGUUGUTT against Spin1 0.814
GGCAUGGAGAGGAACUUCUTT against Siglec1 -1.55
GGUUCACACCAAAGAGCAGTT against Zkscan6 0.909
CGACCAAUGGGACAAUGCATT against Prss12 0.914
GGAUAACAGCACUUUCCAGTT against 2700062C07Rik 0.344
GGUAAAAUGGAACUACAUGTT against Igf2bp3 0.23

An excerpt from further up:
z-score, inactive:
GGCUUUUGUCAAGCAGCACTT against Ins2 -0.628
GGCUCUGCUGAAUAACCUGTT against Gcnt3 -1.45
GGAGAAAGACAACUUCCUATT against Clec7a 0.239
GGAAAUGUGGAGCUCAACGTT against Smap2 -0.618
CCAAGUUCACAAUUGUUCUTT against Gimap8 -0.263
GCCCUCAUUUGUCCUACAUTT against Arhgef2 0.202
GCAGUCAUGAGAAAUACUATT against Irak1 -0.0477
GGAUCUAUUUGGCAGAUUUTT against Pabpc6 1.09
GCUAUUUCAGGCACAAUAATT against Srprb 0.287
GGGAGCCAGGAGAAGUUGUTT against Spin1 0.814
GGCAUGGAGAGGAACUUCUTT against Siglec1 -1.55
GGUUCACACCAAAGAGCAGTT against Zkscan6 0.909
CGACCAAUGGGACAAUGCATT against Prss12 0.914
GGAUAACAGCACUUUCCAGTT against 2700062C07Rik 0.344
GGUAAAAUGGAACUACAUGTT against Igf2bp3 0.23

Next part.

z-score, active:
GGAGCAUCUAUGAUUACAATT against Iqcg 3.24
UCCAUUUCGACCCUUGUACTT against Romo1 -2.88
CCUACUCAAGAAGCUCAGUTT against Hpse -2.47
GGCGGACUUGGAUUACAGCTT against Rassf10 2.21
GCACAUUUAUCCCGGUGUATT against Pnpla2 -2.01
CGGCAUUUGCUAAUGGUCGTT against Actl6a -2.79
